{"source": "patent US20050054569A1", "about": "“Mutants and assay system to identify USP/RXR ligands” (published 2005)", "key": {"[1]": {"biological_target": "T1, endogenous USP in Sf9 nuclear extract (Spodoptera frugiperda) (UniProt K7WYJ0)", "T1 sequence (looked up, limits assumed)": "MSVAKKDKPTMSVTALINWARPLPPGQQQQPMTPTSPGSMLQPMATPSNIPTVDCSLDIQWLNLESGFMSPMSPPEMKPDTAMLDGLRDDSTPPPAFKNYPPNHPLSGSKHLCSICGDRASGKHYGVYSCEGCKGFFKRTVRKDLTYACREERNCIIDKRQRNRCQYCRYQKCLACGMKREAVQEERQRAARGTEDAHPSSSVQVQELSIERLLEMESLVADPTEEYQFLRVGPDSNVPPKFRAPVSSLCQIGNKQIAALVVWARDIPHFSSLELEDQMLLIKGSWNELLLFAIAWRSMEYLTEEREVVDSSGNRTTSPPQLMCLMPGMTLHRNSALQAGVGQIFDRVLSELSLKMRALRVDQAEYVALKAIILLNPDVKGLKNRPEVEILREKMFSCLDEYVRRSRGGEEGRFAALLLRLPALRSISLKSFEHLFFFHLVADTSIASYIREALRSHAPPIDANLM", "assay": "activity in cells", "conditions": "protein in an extract, only the site is given; for activity on this sequence (fold induction): Sf9 luciferase reporter, 75 uM methyl epoxyfarnesoate, endogenous receptor"}, "[2]": {"biological_target": "T1, endogenous USP in Sf9 nuclear extract (Spodoptera frugiperda)", "assay": "competition with a labelled probe", "conditions": "protein in an extract"}}, "note": "For some assays here: Where cells or extracts were used, other partners may take part. No signal at the amounts used counts as a negative. Where a protein sequence is shown, tags need not be part of it. The exact form of at least one protein or probe is not confirmed."}
{"sequence": "CAAGGTCAAAGGTCAG (double strand) [4DR1]", "values": [{"measurement": "activity on this sequence (fold induction)", "setting": "[1]", "result": 2.5}]}
{"sequence": "GGTACCGAGCTCTTACGCGTGCTAGCCCGGGCTCGA (double strand) [pGL3 polylinker (nonself)]", "values": [{"measurement": "binding result", "setting": "[2]; 100x nonself does not compete", "result": "no binding"}]}
{"sequence": "CAAGACATAGAGGCCAAAGAAGACATG (double strand) [mutDR12]", "values": [{"measurement": "activity on this sequence", "setting": "[1]; 1DR12mutCore response no greater than core promoter background, variant of DR12", "result": "not active"}, {"measurement": "binding result", "setting": "[2]; 100x unlabelled mutDR12 does not compete, variant of DR12", "result": "no binding"}]}
{"sequence": "CAAGGTCAAGAAAGGTCAG (double strand) [4DR4]", "values": [{"measurement": "activity on this sequence (fold induction)", "setting": "[1]", "result": 3.5}]}
